The results in this text go back to patent US20040105855A1 (Bristol-Myers Squibb, published 2004).

This assay addresses hu4-1BBIg fusion protein (extracellular domain of H4-1BB fused to the constant domains of a human IgG1 antibody), immobilized on the BIAcore sensorchip (human) (UniProt Q07011+P01857). Put plainly: SPR BIAcore 3000, immobilized H4-1BB.

Results are given in words; binding and its absence hold for the method and conditions named. Some binding calls cover weakened binding; strength is not graded here.

B1: hu39E3.G4 (humanized 39E3, IgG4) (antibody, V domains shown)
VH: EVQLVESGGGLVQPGGSLRLSCAASGFTFSDYWMSWVRQAPGKGLEWVADIKNDGSYTNYAPSLTNRFTISRDNAKNSLYLQMNSLRAEDTAVYYCARELTGTWGQGTMVTVSS
VL: DIVMTQSPDSLAVSLGERATINCKSSQSLLSSGNQKNYLAWYQQKPGQPPKLLIYYASTRQSGVPDRFSGSGSGTDFTLTISSLQAEDVAVYYCLQYDRYPFTFGQGTKLEIKR
notes: Humanized IgG4 with a hinge mutation (after Angal et al.), made in CHO DG-44; also called humanized 39E3.G4 antibody; humanized anti-H4-1BB mAb
On to B1, for which the binding result is given as “binds”.
